{
  "sequences": {"note": "By UniProt entry, the sequences of proteins in these tests, tags left out.", "UniProt O14744, whole entry": "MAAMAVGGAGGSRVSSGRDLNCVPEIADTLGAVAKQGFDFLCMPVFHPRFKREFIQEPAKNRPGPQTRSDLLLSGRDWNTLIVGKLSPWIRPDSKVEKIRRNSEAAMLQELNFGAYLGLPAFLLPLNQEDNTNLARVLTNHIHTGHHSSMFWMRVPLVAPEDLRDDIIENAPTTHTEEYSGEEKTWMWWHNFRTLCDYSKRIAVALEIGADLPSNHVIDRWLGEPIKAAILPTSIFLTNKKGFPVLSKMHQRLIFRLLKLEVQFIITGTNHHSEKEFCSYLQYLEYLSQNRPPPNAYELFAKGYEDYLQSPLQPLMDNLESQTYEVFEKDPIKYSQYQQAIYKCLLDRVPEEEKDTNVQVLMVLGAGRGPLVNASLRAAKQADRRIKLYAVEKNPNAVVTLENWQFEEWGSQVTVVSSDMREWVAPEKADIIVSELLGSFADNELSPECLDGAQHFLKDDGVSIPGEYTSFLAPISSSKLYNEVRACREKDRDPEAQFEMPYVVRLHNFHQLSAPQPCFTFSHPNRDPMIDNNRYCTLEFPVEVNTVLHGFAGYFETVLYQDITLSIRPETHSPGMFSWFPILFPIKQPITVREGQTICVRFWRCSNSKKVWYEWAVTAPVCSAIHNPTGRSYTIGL"},
  "source": "patent US20190365710A1",
  "about": "“METHODS OF TREATING CANCER” (GlaxoSmithKline Intellectual Property Development Limited, priority 2016, published 2019)",
  "origin": "cited, not measured here",
  "biological_target": "PRMT5 (Homo sapiens, UniProt O14744)",
  "settings": "literature (Mavrakis, Marjon, Kryukov 2016); cited from earlier work",
  "note": "At least one compound was matched to its structure with a doubt left.",
  "data": [
    {"smiles": "CSC[C@H]1O[C@@H](n2cnc3c(N)ncnc32)[C@H](O)[C@@H]1O", "note": "[MTA, methylthioadenosine]", "values": [
      {"measurement": "effect on PRMT5 biochemical activity", "result": "shown to inhibit PRMT5 biochemical activity"}
    ]}
  ]
}
